Results deposited as PubChem BioAssay AID1159579 (Peter MacCallum Cancer Centre, 2015).
Test: 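Follow-up screen seeking modulators of motility in lymphatic endothelial cells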 (follow-up of hits). System: human dermal lymphatic endothelial cells. Reagents: single siRNA against human genes, 25 nM. Measurement: 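Scratch wound imaging measuring area filled by moving cells plus nuclei number, averaged over two wells and scaled to mock-transfected controls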. Scale: migration relative to mock: higher = more migration into the scratch; mean nuclei count: higher = more cells remaining. Rule for the call: 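a ratio of at most 0.6 or at least 1.3 marks altered migration and an active call; a mean nuclei count under 3300 forces an inactive call regardless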. Meaning of the calls: active = migration changed (impaired or accelerated); inactive = no migration change, or too few cells.
This is a random part of about 2,000 deposited reagents. 549 of them (27%) count as active. 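Some migration ratios are negative; siRNAs with too few cells are inactive whatever their migration ratio.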 The numbers tell different reagents against one gene apart. Further read-outs or replicates are left out here. Not stated in the record: the time to read-out.

AGR2 #1 | migration relative to mock = 1.17; mean nuclei count = 5790; activity call = inactive
AGR2 #2 | migration relative to mock = 0.74; mean nuclei count = 4554; activity call = inactive
AGR2 #3 | migration relative to mock = 1.13; mean nuclei count = 5484; activity call = inactive
AGR2 #4 | migration relative to mock = 1.08; mean nuclei count = 5942; activity call = inactive
RHOBTB3 (Rho related BTB domain containing 3) #1 | migration relative to mock = 0.58; mean nuclei count = 4066; activity call = active
RHOBTB3 (Rho related BTB domain containing 3) #2 | migration relative to mock = 1.06; mean nuclei count = 4072; activity call = inactive
RHOBTB3 (Rho related BTB domain containing 3) #3 | migration relative to mock = 1.31; mean nuclei count = 5600; activity call = active
RHOBTB3 (Rho related BTB domain containing 3) #4 | migration relative to mock = 0.78; mean nuclei count = 3860; activity call = inactive
FMC1 (formation of mitochondrial complex V assembly factor 1) #1 | migration relative to mock = 0.51; mean nuclei count = 4730; activity call = active
FMC1 (formation of mitochondrial complex V assembly factor 1) #2 | migration relative to mock = 0.36; mean nuclei count = 4248; activity call = active
FMC1 (formation of mitochondrial complex V assembly factor 1) #3 | migration relative to mock = 0.38; mean nuclei count = 4698; activity call = active
FMC1 (formation of mitochondrial complex V assembly factor 1) #4 | migration relative to mock = 0.9; mean nuclei count = 5884; activity call = inactive
ATG12 (autophagy related 12) #1 | migration relative to mock = 0.88; mean nuclei count = 6017; activity call = inactive
ATG12 (autophagy related 12) #2 | migration relative to mock = 0.72; mean nuclei count = 6428; activity call = inactive
ATG12 (autophagy related 12) #3 | migration relative to mock = 0.66; mean nuclei count = 6512; activity call = inactive
ATG12 (autophagy related 12) #4 | migration relative to mock = 1.08; mean nuclei count = 6124; activity call = inactive
BTF3 (basic transcription factor 3) #1 | migration relative to mock = 0.54; mean nuclei count = 6272; activity call = active
BTF3 (basic transcription factor 3) #2 | migration relative to mock = 0.88; mean nuclei count = 6722; activity call = inactive
BTF3 (basic transcription factor 3) #3 | migration relative to mock = 0.65; mean nuclei count = 5698; activity call = inactive
BTF3 (basic transcription factor 3) #4 | migration relative to mock = 0.83; mean nuclei count = 5100; activity call = inactive
APOBEC4 #1 | migration relative to mock = 0.32; mean nuclei count = 3186; activity call = inactive
APOBEC4 #2 | migration relative to mock = 0.7; mean nuclei count = 4090; activity call = inactive
APOBEC4 #3 | migration relative to mock = 0.8; mean nuclei count = 4520; activity call = inactive
APOBEC4 #4 | migration relative to mock = 0.36; mean nuclei count = 5104; activity call = active
GLIPR1 (GLI pathogenesis related 1) #1 | migration relative to mock = 0.99; mean nuclei count = 5814; activity call = inactive
GLIPR1 (GLI pathogenesis related 1) #2 | migration relative to mock = 0.98; mean nuclei count = 6590; activity call = inactive
GLIPR1 (GLI pathogenesis related 1) #3 | migration relative to mock = 1.18; mean nuclei count = 6614; activity call = inactive
GLIPR1 (GLI pathogenesis related 1) #4 | migration relative to mock = 1.38; mean nuclei count = 5954; activity call = active
GATD3 (glutamine amidotransferase class 1 domain containing 3) #1 | migration relative to mock = 0.84; mean nuclei count = 6151; activity call = inactive
GATD3 (glutamine amidotransferase class 1 domain containing 3) #2 | migration relative to mock = 0.72; mean nuclei count = 4428; activity call = inactive
GATD3 (glutamine amidotransferase class 1 domain containing 3) #3 | migration relative to mock = 0.78; mean nuclei count = 6218; activity call = inactive
GATD3 (glutamine amidotransferase class 1 domain containing 3) #4 | migration relative to mock = 0.39; mean nuclei count = 8664; activity call = active
INTS1 (integrator complex subunit 1) #1 | migration relative to mock = 0.75; mean nuclei count = 5458; activity call = inactive
INTS1 (integrator complex subunit 1) #2 | migration relative to mock = 0.88; mean nuclei count = 6168; activity call = inactive
INTS1 (integrator complex subunit 1) #3 | migration relative to mock = 1.02; mean nuclei count = 5228; activity call = inactive
INTS1 (integrator complex subunit 1) #4 | migration relative to mock = 0.93; mean nuclei count = 4454; activity call = inactive
